Assay results published in doi:10.1101/2023.10.24.563645.

Chains of the proteins cited; added tags and fusions are not shown.
UniProt P10275, whole entry: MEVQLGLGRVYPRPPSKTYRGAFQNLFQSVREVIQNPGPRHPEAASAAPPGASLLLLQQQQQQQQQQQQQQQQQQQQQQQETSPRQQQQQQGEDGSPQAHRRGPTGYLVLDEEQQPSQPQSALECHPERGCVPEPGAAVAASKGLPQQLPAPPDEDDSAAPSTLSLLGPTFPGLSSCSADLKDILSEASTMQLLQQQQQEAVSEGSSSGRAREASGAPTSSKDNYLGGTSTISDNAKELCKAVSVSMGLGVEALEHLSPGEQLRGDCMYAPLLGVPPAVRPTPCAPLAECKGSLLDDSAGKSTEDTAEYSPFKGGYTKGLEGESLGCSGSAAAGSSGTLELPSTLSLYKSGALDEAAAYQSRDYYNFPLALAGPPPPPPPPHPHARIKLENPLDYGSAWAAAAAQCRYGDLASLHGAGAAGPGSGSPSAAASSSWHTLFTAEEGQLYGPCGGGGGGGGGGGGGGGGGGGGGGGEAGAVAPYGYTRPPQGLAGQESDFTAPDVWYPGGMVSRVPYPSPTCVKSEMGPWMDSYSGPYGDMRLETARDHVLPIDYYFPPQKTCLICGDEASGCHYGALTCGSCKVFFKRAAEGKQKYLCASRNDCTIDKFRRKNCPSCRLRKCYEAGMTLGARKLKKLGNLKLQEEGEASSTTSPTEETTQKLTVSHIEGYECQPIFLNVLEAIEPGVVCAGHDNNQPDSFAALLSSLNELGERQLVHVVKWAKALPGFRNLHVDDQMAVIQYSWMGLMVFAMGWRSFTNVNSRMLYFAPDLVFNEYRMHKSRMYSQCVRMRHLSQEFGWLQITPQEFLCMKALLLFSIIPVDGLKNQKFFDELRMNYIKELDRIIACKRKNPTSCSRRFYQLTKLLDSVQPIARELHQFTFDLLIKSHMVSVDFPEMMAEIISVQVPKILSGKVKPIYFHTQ

Key:
[1] = molecular target: androgen receptor (AR) with Flag tag (UniProt P10275); assay: co-IP
[2] = molecular target: SCAN domain of ZNF397 with Flag tag (human (cDNA from HEK293T)) (UniProt Q8NF99); assay: co-IP

Substance | binding [1] | binding [2]
SCAN domain of ZNF397 with TY1 tag (from UniProt Q8NF99) (domain or fragment) | binds | 
cysteine-rich dioxygenase (CD) domain of TET2 with Myc tag (from UniProt Q6N021) (domain or fragment) |  | binds

No constants are given. Whether binding was seen depends on the method and setting. Binding seen in cells or lysates may run through a third protein. Binding can be weak; no strength is given.
